No constants are given. Whether binding was seen depends on the method and setting. Some results given as binding are weak or reduced against the parent protein; the word gives no strength. Each block holds one binder with its values, some of them ahead of it.
Biological target: Rhesus IGF-IR (rhesus) (UniProt I2CWY3)
Assay: immunoprecipitation and Western blot on cells

- binding: binds
B1: anti-IGF-IR antibody 2.13.2 (antibody, V domains shown)
VH: EVQLLESGGGLVQPGGSLRLSCTASGFTFSSYAMNWVRQAPGKGLEWVSAISGSGGTTFYADSVKGRFTISRDNSRTTLYLQMNSLRAEDTAVYYCAKDLGWSDSYYYYYGMDVWGQGTTVTVSS
VL: DIQMTQFPSSLSASVGDRVTITCRASQGIRNDLGWYQQKPGKAPKRLIYAASRLHRGVPSRFSGSGSGTEFTLTISSLQPEDFATYYCLQHNSYPCSFGQGTKLEIKR

- binding: binds
B2: anti-IGF-IR antibody 2.12.1 (antibody, V domains shown)
VH: QAQLVESGGGLVKPGGSLRLSCAASGFTFSDYYMSWIRQAPGKGLEWVSYISSSGSTRDYADSVKGRFTISRDNAKNSLYLQMNSLRAEDTAVYYCVRDGVETTFYYYYYGMDVWGQGTTVTVSS
VL: DIQMTQSPSSLSASVGDRVTFTCRASQDIRRDLGWYQQKPGKAPKRLIYAASRLQSGVPSRFSGSGSGTEFTLTISSLQPEDFATYYCLQHNNYPRTFGQGTEVEIIR

Reference: patent US20040086503A1
